Results on 108 sequences are retold here after PubChem BioAssay AID1347426 (Functional Genomics Laboratory (NCATS/FGL), 2020).

In all, about 31,000 sequences went through this assay and about 1,400 (4.5%) were called active.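 How the source made its calls: active means median seed-adjusted z-score above 1 or below -1; inactive means the rest.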 Some of the results follow.

This experiment is described as follows: Novel Modifiers of Survival Motor Neuron (SMN) Protein: Gene Identification via Genome-wide siRNA Screen.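 Further: luminescence tracks full-length SMN protein made from the SMN2 reporter.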 To be noted: HEK293T SMN2-luciferase reporter, siRNA knockdown, 72 h; actives lie on both sides. The procedure, abridged: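 Genome-wide siRNA screen (10418 genes, 3 siRNAs each, 1 pmol per well) by reverse transfection in HEK293T cells stably carrying an SMN2-luciferase reporter; luminescence after 72 hours, normalized to negative-control siRNA, log10-transformed, MAD-scored.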
With CGAGCUACAGGAACAUCUUTT against LSS, the median seed-adjusted z-score is inactive: -0.302. For the sequence AUAGUUGACUAUUCUGAAATT against CCL18, the median seed-adjusted z-score is inactive: 0.169. To AGGCAUUUUUGAAUGAGAATT against DDC belongs inactive: 0.395; to GCACGGAAUUUGAACAGUATT against SOX17, inactive: -0.46; to GGCCUUUAGCAAUAGUUCATT against ZNF583, inactive: -0.225. In the case of CCUUCUAAUUCGCAAGGUATT against REL, the median seed-adjusted z-score was inactive: -0.358. On to CCUCGUAUCAAAACAUUAATT against BIRC2, for which the median seed-adjusted z-score is inactive: 0.336.

Take GGCUCUUAAUAUUCGAAUATT against GPR22: the median seed-adjusted z-score was inactive: 0.705.

With GACUUACUCGAGAACAAGATT against SF1, the median seed-adjusted z-score is inactive: 0.795.

For the sequence GAGCUGCAUGAAUACGUUUTT against EXT1, the median seed-adjusted z-score is inactive: 0.489.

As for UGACUCUACUCAUUAGAUUTT against MAS1L, the median seed-adjusted z-score was inactive: 0.0585. For the sequence GGAUGACAUCUCAGAAUCATT against PNCK, the median seed-adjusted z-score is inactive: 0. On to AGACCUGCCUAAUGGUUCUTT against CAV2, for which the median seed-adjusted z-score was inactive: -0.00895. Consider GGAUCAUGCUAAAAGGAGATT against SNRPE, for which the median seed-adjusted z-score is active: -2.77. Next, AACCAUAGGCUUCAAUGUATT against ARF5: inactive: -0.507; CGACGACAGCUACUGGUUUTT against NUDT1: inactive: -0.175; CGAGGACACCUCUUACGAUTT against NRF1: inactive: 0.608. Take GAUUGCACGCUAUAUUAAATT against TEAD3: the median seed-adjusted z-score is inactive: 0.

As for ACAAGAACCCUGACAAUAATT against DNAJB8, the median seed-adjusted z-score was active: -1.09.

GGAUGCCUGGUUCCACUUUTT against TRPV3: the median seed-adjusted z-score is inactive: -0.228. For the sequence GGCUGAAAAUGACGACUAUTT against ZDHHC7, the median seed-adjusted z-score was inactive: 0.0962. Next, CCGCAGACUGAGUUCCUCATT against TRIM72: inactive: -0.0122; AAGUCAUUAACACACUUUATT against DEAF1: inactive: 0.0416.

As to GAGAGCAAGUUCUACAAGATT against CSNK1E, the median seed-adjusted z-score was inactive: -0.796. Consider AGUUAAUCCUCUCAUUUCUTT against GHRH, for which the median seed-adjusted z-score was inactive: -0.16.

As to GGACCUCCGUUGACAGAUUTT against PHF12, the median seed-adjusted z-score was inactive: 0.784. For the sequence GGACCUCAGCGAUAAUGCATT against RTN4R, the median seed-adjusted z-score is inactive: -0.536. Next, GGUGAAUCCUGUGACACUATT against MYO19: inactive: 0.0987; CCGUAUUGGUCAUCAUUGATT against PSMD7: inactive: 0.0973; GCUAAUCACUAGAUUAGAATT against LDB2: inactive: -0.0847.

As to UGAAAAUUGUAGCCUGUGATT against GTF2A2, the median seed-adjusted z-score was inactive: 0.0457. Take GGUGCUUCUAGGUUACCCATT against NUP210: the median seed-adjusted z-score was inactive: 0.0904. With GACGACUCGUCAUAAGUUUTT against PLB1, the median seed-adjusted z-score was inactive: -0.118. GGACAAUAUGUGACCAGAATT against CD163L1: the median seed-adjusted z-score is inactive: 0.353. Next, CGGUAUGCCUGUGACGACATT against FCER2: active: -1.75; CCACCUCUCUCGAUCCCUATT against RBM4: inactive: 0.0148; GAUUUGAUCAGGAGGAUAATT against ANP32E: inactive: -0.0648.

UGUCCAAUCUAGAUCCCAATT against SLC7A5: the median seed-adjusted z-score is inactive: 0.00397. Consider ACCAUAGCCUCUCACCCUATT against RASA4, for which the median seed-adjusted z-score was active: -1.11.

Regarding ACUGGGCUCUCUUUACCUATT against DBNL, the median seed-adjusted z-score is inactive: 0.398. Next, CAUUUGUGGGAGAAGAUAATT against STK17B: inactive: -0.971; GAAUCGCAGUUAUCGCAGATT against CANT1: inactive: 0; GCAAUGGAGUGAUCGUACATT against LY75: inactive: -0.0919.

Turning to GGAUGAAAACUUUAAGUCUTT against ROR1, the median seed-adjusted z-score is inactive: -0.0044. To UGUUCAGCCUUGACUCAAATT against RHOU belongs active: -1.44; to CCACUAUGCUUUACGCCCATT against ARSI, inactive: 0. Regarding GGCAAGGUAUUUAAUCAGATT against ZNF28, the median seed-adjusted z-score was inactive: 0.814. Take GAAGGACCCUUACACUCUUTT against TCF4: the median seed-adjusted z-score was inactive: 0.107. For the sequence CGCUACUACUACGACAAGATT against FEV, the median seed-adjusted z-score was inactive: 0.174. With GGGAAACUGUACAUCGUGATT against TSSK6, the median seed-adjusted z-score was inactive: -0.408. Turning to CUACCUAACUAAGAAGUUUTT against CNDP2, the median seed-adjusted z-score was inactive: 0.43. Consider GGUUAUGCCUUGCUGCAUUTT against ATRN, for which the median seed-adjusted z-score is inactive: -0.28. Regarding GUGUGGUGUUUAGUGGAUATT against TNFRSF14, the median seed-adjusted z-score was inactive: 0. As for CCGCUGUUAUCAUUACCAUTT against KIR2DL5B, the median seed-adjusted z-score is active: 1.72.

Turning to GCAAGGCUAUCUUCUUCAATT against KCNA7, the median seed-adjusted z-score was inactive: 0.394. Take CGAACAAGACCGUCCAUCUTT against SIGLEC9: the median seed-adjusted z-score was inactive: 0. To GGAUUAACCUGGACAACAATT against PRELP belongs inactive: -0.0579.

As to GGUUUAUGCUGGAUUGAAUTT against RRH, the median seed-adjusted z-score is inactive: -0.0112. Turning to AGUUUAAUCUCAAGGGCAATT against ZNF710, the median seed-adjusted z-score was inactive: 0. For GCUUCUAUAAGUACUAGUATT against MTO1, the median seed-adjusted z-score is inactive: -0.0252. AGAACAAAGUGGUGGUGAUTT against DHRS7C: the median seed-adjusted z-score is inactive: -0.398.

Consider GGUGCUUUCCCAAGACUGUTT against MAP3K10, for which the median seed-adjusted z-score was inactive: 0.201. Next, GCUUCGUCAGGUGUAAGAATT against WNT5B: inactive: 0.72; CUAUGAAAGAGGUUCUUUUTT against MDM2: inactive: 0.258; GAGAUCGACUUGGUGCUGATT against CHRNB2: inactive: -0.649. In the case of CUGGAAGAGCUAAACCUGATT against TLR9, the median seed-adjusted z-score was inactive: -0.0834. Turning to GGCAUCCAGUUGUUCGAGATT against RAB35, the median seed-adjusted z-score was inactive: 0.317. Next, GCAACGUGUUGAUGAUGCATT against ADAD1: inactive: -0.0795. Consider CAUUCGGGAUCAUGAGUUUTT against PTPRO, for which the median seed-adjusted z-score is inactive: 0.387. Next, CAAGAAAAGCUACCACGCATT against PACSIN3: inactive: -0.0145; CGGCGUAAAUCCUAGAGUATT against DMRTA1: inactive: -0.162. As for UGGUGACACUGUACCCAUATT against ABI3, the median seed-adjusted z-score is inactive: 0.114. In the case of GCCCUGGACUUAGACCAGUTT against OSGIN1, the median seed-adjusted z-score was inactive: -0.131. Turning to GGGCUAUGAUAAAUGGUCUTT against SHROOM3, the median seed-adjusted z-score was inactive: 0.779. Consider CGUCAGAGUUCAUAUCUUATT against ZNF234, for which the median seed-adjusted z-score is inactive: 0.0667.

Turning to CACGAAAGUUUAUAGCAAATT against CHRNA9, the median seed-adjusted z-score was inactive: -0.454. Consider CGACUCCGGAGGAUUGAAATT against GSX2, for which the median seed-adjusted z-score is inactive: -0.621. In the case of GGAGAGUGGAUGACUCAGATT against ZNF691, the median seed-adjusted z-score is inactive: 0.28. In the case of GGACGACACGUUCUACCUGTT against ENDOG, the median seed-adjusted z-score is inactive: -0.336. As to CAGCCUCAAUUUUUGCCUUTT against MAL2, the median seed-adjusted z-score is inactive: -0.604. Regarding GCAAAGUAACUGCUAUAAATT against BET1, the median seed-adjusted z-score is inactive: 0.394. On to GCAAGGAUGUCGCACUGCUTT against CCR10, for which the median seed-adjusted z-score is inactive: -0.129. As for CGACAGAUUUUUCACUAUUTT against CDH11, the median seed-adjusted z-score was inactive: -0.457.

Turning to CACUUAAACUGCAGCAGAATT against PLDN, the median seed-adjusted z-score was inactive: -0.164. As to UCUUUUGAAUGUAUACAGATT against ZNF468, the median seed-adjusted z-score is inactive: -0.0435. For GAAUAAGGCUUGUAGUAAATT against FIGNL1, the median seed-adjusted z-score is inactive: -0.408.

As to CCCUAACAGAUGAUCGUGATT against SETD2, the median seed-adjusted z-score is inactive: -0.0192. Next, AAGCAGAGGUUGAUGCCGATT against ARHGEF1: inactive: -0.0658. For GAACGUGACAGAAUAAGCATT against HNF4G, the median seed-adjusted z-score was inactive: 0.01. For the sequence CACUAUUCAUUGCUACCUATT against CNKSR2, the median seed-adjusted z-score was inactive: -0.0536. As for GGAAAUUAACCGCAGGGAATT against KRT34, the median seed-adjusted z-score is inactive: 0.124. Consider GAAGCUAGCUUAUGCUGUUTT against DDX19B, for which the median seed-adjusted z-score is inactive: -0.298. As to GGAUUUUAUUCUUCACCGUTT against RBMS3, the median seed-adjusted z-score was inactive: 0.0976. As to GGAUAUGGAGUUACUCUUUTT against MGST1, the median seed-adjusted z-score is inactive: -0.0144. In the case of UGACAUCCGUAGAUCUUGATT against OAS3, the median seed-adjusted z-score was inactive: 0.147. Next, GGUCGAUAAUACUAUCAAUTT against SETX: inactive: -0.709; GCACCAUGACUGACCCUGATT against SEC14L2: inactive: -0.253. As for GCGAAUUCGAUAAACGGUATT against PRL, the median seed-adjusted z-score was inactive: 0. For the sequence GAAGCUAUUUUAAGAGGAATT against ZNF483, the median seed-adjusted z-score was inactive: 0. Consider GAAUCAGUCCAAGAACAAUTT against GNRHR, for which the median seed-adjusted z-score is inactive: 0.0978. As for GAGGGUCUCUUCUUAAGUATT against CAD, the median seed-adjusted z-score is active: 2.37. CACUUUUUAUAUUUACGUATT against TSPAN4: the median seed-adjusted z-score was inactive: 0.417. With GUCUAAAUGUUAUUAGGAATT against HNRPLL, the median seed-adjusted z-score is inactive: 0. Consider AAGACGGCCGAGAACUUUATT against PPIH, for which the median seed-adjusted z-score is inactive: -0.174. Regarding CUGUGGGUGUGGAACCGUATT against TMEM86B, the median seed-adjusted z-score was inactive: -0.465. For the sequence GCGUCUACCACAAUCAAUATT against BPTF, the median seed-adjusted z-score is inactive: -0.273. As for GGAAUAUCACUUCCAUACATT against NTRK3, the median seed-adjusted z-score was inactive: 0. With GGAAAUACCGCAAAGACAATT against GALNT10, the median seed-adjusted z-score was inactive: 0.
